The list shows a part of the results. Shown are side measurements of this screen, not its main read-out; they come without a call. Most of these compounds were active or inconclusive in the main read-out, so they are no random draw. Potencies come from curve fits of mixed quality, noted in brackets.
Assay: qHTS Assay for Lipid Storage Modulators in Drosophila S3 Cells;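 as to cell number change: cells counted by Cell Tracker Red CMTPX staining in the red channel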
Conditions: BODIPY lipid droplet fluorescence, 18-24 h; for cell number change: measured here: cell count max response, cells fed with added oleic acid
In short: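 Drosophila S3 cells loaded with oleic acid (400 uM, as added) and compounds at several concentrations; lipid droplets imaged by 488-nm laser-scanning cytometry, 500–530 nm intensity and object ratio to cell channel. Percent activity normalized to 20 uM Triacsin C.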

[1] = measured here: lipid fluorescence (Fed channel) AC50, cells fed with added oleic acid
[2] = measured here: cell number channel AC50, cells fed with added oleic acid

| Compound | cell number change [%] | AC50 [1] | AC50 [2] |
| --- | --- | --- | --- |
| COc1cccc([C@@H]2CC=C(C(=O)O)[C@H](c3ccc(Cl)cc3)N2S(=O)(=O)c2ccc(C)cc2)c1 | 1.39 | 0.206 µM [rising, partial curve, poor fit] | – |
| O=C(CSc1nc2ccccc2o1)N1CCN(S(=O)(=O)c2ccc3ccccc3c2)CC1 | -17.6 | – | – |
| CCN(c1ccccc1)S(=O)(=O)c1ccc(Cl)c(C(=O)N2CCCC2)c1 | -12.7 | 18.4 µM [falling, single point] | – |
| Cc1ccccc1-n1nc2c(c1NC(=O)c1c(-c3ccccc3Cl)noc1C)CS(=O)(=O)C2 | – | 0.58 µM [falling, single point] | – |
| CC/C(=N\Nc1ccccc1[N+](=O)[O-])c1ccc(O)cc1 | -56.7 | 23.1 µM [falling, partial curve] | 25.9 µM [falling, partial curve] |
| O=C(NC1CCN(c2ncccn2)CC1)c1cccc(F)c1 | 37.3 | – | 29.1 µM [rising, single point] |
| NC(=O)Cn1nnc(-c2ccccc2NC(=O)c2cnccn2)n1 | 49.7 | 0.58 µM [rising, full curve] | 0.58 µM [rising, full curve] |
| COc1cc(NC(=O)CSc2nc3[nH]ncc3c(=O)n2-c2ccc(Cl)cc2)cc(OC)c1 | 6.42 | – | – |
| CCSc1nnc(-c2cccc(S(=O)(=O)N(C)C)c2)n1-c1cc(OC)ccc1OC | -2.69 | 18.4 µM [rising, partial curve] | – |
| O=C(NCCC(=O)N1CCc2ccccc21)c1ccco1 | 2.78 | – | 0.092 µM [rising, full curve, poor fit] |
| O=C(c1ccc(S(=O)(=O)N2CCOCC2)cc1)N1CCN(c2cccc(Cl)c2)CC1 | -40.3 | – | 23.1 µM [falling, partial curve, poor fit] |
| O=c1oc(-c2ccco2)nc2ccccc12 | -33.1 | 32.6 µM [falling, single point] | 16.4 µM [falling, partial curve, poor fit] |
| COc1ccc(-c2cc3c(=O)n(CC(=O)NCCCN4CCN(Cc5ccccc5)CC4)ncn3n2)cc1 | 49.5 | – | 16.4 µM [rising, single point] |
| Cc1nnc(NC(=O)CCS(=O)(=O)Cc2ccccc2)s1 | 17 | – | – |
| CC#CC[N+](C)(CC#CC)CC(=O)c1ccccc1 | -11.3 | – | – |
| O=C(NC1CCCC1)C(Cc1ccccc1)n1cccc1 (centres undefined) | -8.46 | – | – |
| COc1cc(C=O)ccc1OCCOc1ccccc1[N+](=O)[O-] | 9.81 | 10.3 µM [rising, partial curve] | – |
| CCOc1ccc(C(=O)NCC(=O)OCC(=O)N2CCC(C)CC2)cc1 | 1.26 | 20.6 µM [falling, partial curve] | 0.00731 µM [falling, full curve, poor fit] |
| Cc1ccc(C)c(N2C(=N)S/C(=C\c3ccc(-c4ccccc4C(=O)O)o3)C2=O)c1 | 30.7 | – | – |
| COc1ccc(OCCNC(=O)C(Cc2c[nH]c3ccccc23)NC(C)=O)cc1 (centres undefined) | – | 6.51 µM [rising, single point] | – |
| Cc1ccc(NC(=O)O/N=C/c2ccc(Br)cc2)cc1 | – | 14.6 µM [rising, partial curve] | – |
| CC1=CC(=C(C#N)C#N)c2ccccc2N1C | 14.2 | – | – |

| Compound | cell number change [%] | AC50 [1] | AC50 [2] |
| --- | --- | --- | --- |
| Cc1cc2c(cc1C)C(c1ccsc1)CC(=O)N2 (centres undefined) | -33.3 | 32.6 µM [falling, single point] | – |
| Oc1ccc(Br)cc1-c1ccnn1-c1ccccc1 | -25.4 | – | – |
| Cc1cccc(NC(=O)Cn2nnc(-c3cccs3)n2)c1C | -14.9 | 2.91 µM [rising, single point] | – |
| COc1ccc(C2C(C(=O)Nc3cccnc3)=C(C)Nc3nc(-c4ccco4)nn32)cc1 (centres undefined) | -7.54 | 6.51 µM [falling, full curve, poor fit] | – |
| COc1cccc(/C=C/C(=O)c2ccc(NS(=O)(=O)c3ccc(C)cc3)cc2)c1 | 1.06 | 0.184 µM [falling, full curve] | 0.651 µM [falling, single point] |
| COc1cccc(C(=O)Nc2ccc(NC(=O)C3CCCCC3)nc2)c1 | -2.02 | 3.26 µM [falling, single point] | – |
| Cc1cccc(C2CC3(CC(C)(C)NC(=S)N3)Oc3cc(O)ccc32)c1 (centres undefined) | -19.9 | 0.731 µM [falling, single point] | – |
| CCn1c(SCC(=O)N/N=C(\C)c2ccncc2)nnc1-c1ccccc1 | 31.4 | 0.00411 µM [rising, full curve, poor fit] | – |
| CC(C)(C)NC(=O)C(c1ccc(F)cc1)N(C(=O)CCC(=O)Nc1ccccn1)C1CCCC1 (centres undefined) | 17.9 | – | – |
| O=C(NCCN1CCOCC1)c1cccc(NS(=O)(=O)c2ccc(Br)cc2)c1 | – | 6.51 µM [rising, single point] | – |
| O=C(CCc1ccccc1)N=C1SC2CS(=O)(=O)CC2N1Cc1ccccc1 (centres undefined) | 8.9 | – | – |
| COc1cc(C(=O)OC2CCOC2=O)c([N+](=O)[O-])cc1OC (centres undefined) | 2.1 | 20.6 µM [falling, single point] | – |
| COc1ccc(N2CCN(C(=O)Cn3cncn3)CC2)cc1 | 1.04 | – | – |
| Cc1nnc(SCc2ccc(C(=O)O)cc2)s1 | -33.7 | 1.3 µM [falling, full curve, poor fit] | 3.66 µM [falling, full curve] |
| c1cncc(-c2nn[nH]n2)c1 | -1 | – | – |
| CC(=O)c1cnn(-c2ccc(Cl)c(Cl)c2Cl)c1C | 14.2 | 0.058 µM [rising, full curve] | – |
| CCOc1ccc(CCNC(=O)COC(=O)/C=C/c2ccccc2)cc1OCC | -96.1 | 14.6 µM [falling, partial curve] | 10.3 µM [falling, partial curve] |
| O=C(Nc1c(C(=O)c2ccccc2)oc2ccccc12)c1cc(-c2ccccc2O)n[nH]1 | -27 | – | – |
| CC(On1nnc2ccccc21)C(=O)N1CCN(Cc2ccccc2)CC1 (centres undefined) | 27.6 | – | – |
| Cc1ccc(C(=O)Nc2ccc(C(=O)O)cc2NC(=O)c2ccc(C)cc2)cc1 | 4.53 | 3.66 µM [rising, single point] | – |
| CCCCc1c(O)nc(SCC(=O)Nc2ccc3c(c2)CCC3)[nH]c1=O | 20.2 | 0.116 µM [falling, full curve, poor fit] | – |
| COC(=O)c1cc([N+](=O)[O-])ccc1N1CCN(Cc2ccccc2)CC1 | 0.627 | 2.06 µM [rising, full curve, poor fit] | – |

| Compound | cell number change [%] | AC50 [1] | AC50 [2] |
| --- | --- | --- | --- |
| O=C(CN1CCCc2ccccc21)N/N=C/c1ccc(O)cc1O | -16.2 | 18.4 µM [falling, single point] | – |
| COCCN1C(=S)N[C@@H](c2ccccc2)C(C(=O)OC)=C1C | 4.3 | 29.1 µM [rising, single point] | – |
| CCOc1ccc(-n2c(=O)c3sccc3n(Cc3cccc([N+](=O)[O-])c3)c2=O)cc1 | – | – | 6.51 µM [rising, partial curve, poor fit] |
| CC1CCC(NC(=O)CN2CCCN(Cc3ccc(F)cc3Cl)C2=O)CC1 (centres undefined) | 14 | 0.0082 µM [falling, full curve, poor fit] | – |
| O=C(CNc1cccc(C(F)(F)F)c1)Nc1cccc(S(=O)(=O)N2CCCC2)c1 | 18.8 | 0.731 µM [falling, partial curve, poor fit] | – |
| O=C(c1cccc(Cl)c1)N1CCN(c2ncccn2)CC1 | -4.96 | – | – |
| COc1ccccc1NC1C=CS(=O)(=O)C1 (centres undefined) | -10.1 | – | – |
| O=C(CN1C(=O)C2CC=CCC2C1=O)Nc1nnc(SCc2ccc(F)cc2)s1 (centres undefined) | 1.97 | – | – |
| COc1ccc(C(=O)NCC2(N3CCCCC3)CCCCC2)cc1S(=O)(=O)N(C)C | -0.794 | 14.6 µM [rising, partial curve] | – |
| COc1cccc(CNCCSc2nnnn2C)c1OC | -54.4 | 3.66 µM [falling, full curve] | 3.66 µM [falling, full curve] |
| CC(=O)N(CCc1cccc(C)c1)Cc1cc2ccc(C)cc2[nH]c1=O | -6.3 | 7.31 µM [falling, partial curve] | – |
| O=C(Nc1ccccc1)C1=C(O)CC(c2ccc(Cl)cc2)N2CCN=C12 (centres undefined) | -59.1 | 29.1 µM [falling, single point] | 20.6 µM [falling, single point] |
| COc1ccc(-c2sc3cc4c(cc3c2C#CCO)OCO4)cc1 | -14.2 | 1.16 µM [rising, single point] | – |
| Cn1c(C2=C(O)CN(c3ccccc3)C2=N)nc2ccccc21 | – | 0.58 µM [falling, single point] | 0.58 µM [falling, single point] |
| COc1ccc(C(O)(CC(C)C)C(CN2CCOCC2)c2ccccc2)cc1 (centres undefined) | 47.2 | – | 29.1 µM [rising, single point] |
| O=C(CSc1ccccn1)Nc1ccc2c(c1)OCO2 | 18.6 | 1.84 µM [rising, partial curve] | – |
| Cc1c(NC(=O)c2c([N+](=O)[O-])cnn2C)c(=O)n(-c2ccccc2)n1C | 10.5 | – | – |
| CC(C(=O)NC1CCCC1)N1CCN(Cc2ccccc2)CC1 (centres undefined) | -24.3 | 18.4 µM [falling, single point] | – |
| Cc1ccc(CCNC(=O)C2CCC(CNc3c(N4CCCC4)c(=O)c3=O)CC2)cc1 (centres undefined) | 31.3 | – | 0.231 µM [rising, full curve, poor fit] |
| O=C(O)C(Cc1ccccc1-c1ccccc1)C(=O)O | 17.7 | 3.26 µM [rising, partial curve, poor fit] | – |

Complete entries as entered above.
COc1ccccc1NC1C=CS(=O)(=O)C1 (centres undefined) is entered as cell number change [%]: -10.1
O=C(CN1CCCc2ccccc21)N/N=C/c1ccc(O)cc1O is entered as cell number change [%]: -16.2; AC50 [1]: 18.4 µM [falling, single point]

Source: PubChem BioAssay AID2685 (National Center for Advancing Translational Sciences (NCATS), 2010)
